According to PubChem BioAssay AID1508615 (Milbrandt Lab, Department of Genetics, Washington …, 2020):
Among all 1,600 compounds or so, about 20 (1%) were called active.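 The calls were made as follows: active = ratio of uncleaved NAD to its breakdown product ADP-ribose above 4, meaning the enzyme was inhibited; inactive = the rest.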 Some of the results follow.

Protein sequences, listed by entry. Tags and fused reporters are not part of them. Lines headed by an entry give the natural chain unless they say otherwise; changes in a name come on top.
UniProt Q6SZW1: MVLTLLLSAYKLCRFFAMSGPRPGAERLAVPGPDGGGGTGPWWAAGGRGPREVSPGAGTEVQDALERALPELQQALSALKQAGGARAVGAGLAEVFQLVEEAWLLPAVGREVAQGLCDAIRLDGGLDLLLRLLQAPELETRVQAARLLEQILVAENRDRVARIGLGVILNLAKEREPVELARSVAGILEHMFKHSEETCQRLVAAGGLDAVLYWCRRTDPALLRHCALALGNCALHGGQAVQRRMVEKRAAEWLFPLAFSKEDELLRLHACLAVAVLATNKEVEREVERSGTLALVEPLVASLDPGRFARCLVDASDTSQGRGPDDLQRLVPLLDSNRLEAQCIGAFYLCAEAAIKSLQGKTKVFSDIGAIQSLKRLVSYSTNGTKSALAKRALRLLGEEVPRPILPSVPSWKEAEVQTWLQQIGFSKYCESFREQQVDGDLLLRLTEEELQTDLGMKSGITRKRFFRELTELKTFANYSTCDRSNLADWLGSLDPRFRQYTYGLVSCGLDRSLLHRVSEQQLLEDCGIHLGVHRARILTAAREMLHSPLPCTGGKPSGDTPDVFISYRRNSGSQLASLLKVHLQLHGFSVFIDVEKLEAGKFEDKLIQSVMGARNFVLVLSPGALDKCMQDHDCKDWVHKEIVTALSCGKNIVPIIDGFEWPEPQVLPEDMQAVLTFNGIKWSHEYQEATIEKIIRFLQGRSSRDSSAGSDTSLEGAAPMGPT

Biological target: NAD(+) hydrolase SARM1 (Homo sapiens) (UniProt Q6SZW1)
Assay: SARM1 TIR NADase inhibitors by HPLC, primary screen, cell lysate, HPLC readout (AID 1508615);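 also: substrate NAD at 5 µM with 60 min at 37 °C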
Conditions: HEK293T SAM-TIR lysate, at 5 µM, active compounds read high

NAD/ADPR ratio, inactive:
CC1=CC(=C2C=CC(=O)C=C2)C=C(C)N1C 3, O=C1CC(c2ccc(O)cc2)Oc2cc(O)cc(O)c21 (stereo not drawn) 3, O=C(Nc1cccc(Cl)c1)Nc1nccs1 3, CN(C)c1ccc(/C=C(\C#N)C(=O)c2ccccc2)cc1 3, COc1ccccc1NC(=O)Nc1cc(C(C)C)ccc1C 3, Cc1c([N+](=O)[O-])oc2c1C(=O)NCCC2 3, CCC(C)NC(=O)c1cccc(C)c1 (stereo not drawn) 3, CN(c1cccnc1)c1ncnc2[nH]ncc12 3, Cc1ccc(Nc2nc(Cl)nc3ncn(C)c23)c(C)c1 3, CCN(CC)CCCC(C)Nc1ccnc2cc(C(F)(F)F)ccc12 (stereo not drawn) 3, COc1ccc([N+](=O)[O-])cc1NS(=O)(=O)c1ccc(C)cc1 3, Cc1ccc(Nc2nnc(-c3ccc4c(c3)OCO4)o2)c(C)c1 3, Oc1[nH]c(N=C2N=c3ccccc3=N2)c2ccccc12 3, O=c1[nH]c(=O)n2ncnc2[nH]1 3, O=S(=O)(c1ccc2c(c1)CCCN2)N1CCCC2CCCCC21 (stereo not drawn) 3, CC12CCC(C1)C(C)(C)C2OC(=O)c1ccccc1C(=O)O (stereo not drawn) 3, COc1ccn(C2CCCCO2)c(=O)n1 (stereo not drawn) 3, c1ccc(-c2nc[nH]c2-c2ccccc2)cc1 3, CC1=CC(=O)Nc2cncnc2N1 3, CC(=O)N1C(=O)C2(NCC(C)N2)c2ccccc21 (stereo not drawn) 3, CCS(=O)(=O)C1C(=O)N(C)C(S(=O)(=O)CC)C(=O)N1C (stereo not drawn) 3, Nc1o[nH]c(=O)c1C1CCCCC1 3, COc1cc(CC(=O)C(=O)O)oc(=O)c1 3, CC(=O)OC1CC[C@@]2(C)C(CCC3C2CC(=O)[C@@]2(C)C3CC3CC(C)=CC(=O)C32)C1 (stereo partly drawn) 3, CCOC(=O)/C=C/c1nc(C(=O)OCC)c(C)c(=O)[nH]1 3, COc1cc(/C=N/Nc2nc3c([nH]2)c(=O)n(C)c(=O)n3C)ccc1O 3, CCCn1cnc2c(=S)nc(N)[nH]c21 3, C=CCC(CC)C(=O)NC(=O)N1CCCc2ccccc21 (stereo not drawn) 3, O=[N+]([O-])c1ccc(/C=[N+](\[O-])CCO)o1 3, NC(N)=NC(=S)Nc1ccc(Cl)cc1 3, NC(=S)NC(=O)c1ccccc1 3, CCCSc1ncnc2[nH]ncc12 3, CN(C)CCOc1ccc2c(c1)C(=O)/C(=C/c1ncc([N+](=O)[O-])n1C)C2 3
